Experimental data: PubChem BioAssay AID1224828 (NIAID, 2016)
Here is a random part of about 17,000 reagents. 762 of all reagents (4.5%) were called active. 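Active calls include both raised and lowered p65 entry, mostly lowered; wells with fewer than 50 cells lack a z-score.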 The raw values are shown without normalisation.

- Test: 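Regulators linking TLR4 signalling to p65 nuclear translocation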 (primary screen)
- Cells: mouse RAW264.7 G9 macrophage reporter cells (GFP-p65, Tnf promoter-mCherry)
- Knock-down reagent: siRNA pool against mouse genes, 100 nM
- Time to read-out: 2 days siRNA transfection, then 40 min LPS before fixation
- Challenge: LPS (Salmonella minnesota R595) at 10 ng/ml
- Read-out: 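Imaged p65 nuclear translocation ratio, normalised to the plate median, converted to robust z-scores and averaged across two replicates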
- Direction: p65 translocation robust z-score: higher = more nuclear NF-kappaB p65 after LPS than the plate median; nuclear/cytoplasmic p65 ratio: higher = more nuclear NF-kappaB p65
- Active means: 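Active if robust z is above 3.3 (negative regulators) or below -1.56, the Tlr4 control median (positive regulators); activity score 50 or more; control wells not called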
- Meaning of the calls: active = hit (p65 shift raised or lowered); inactive = no clear change

With Arfgef2 (GeneID 99371), how do the results read?
p65 translocation robust z-score: -0.41; nuclear/cytoplasmic p65 ratio, rep 1: 1.89; nuclear/cytoplasmic p65 ratio, rep 2: 1.55; low cell count flag: enough cells to score; Call: inactive

With Hipk1 (GeneID 15257), how do the results read?
nuclear/cytoplasmic p65 ratio, rep 1: 1.56; nuclear/cytoplasmic p65 ratio, rep 2: 1.53; low cell count flag: fewer than 50 cells per well; well left out of scoring; Call: inactive

Which result is listed for Tbc1d16 (GeneID 207592)?
p65 translocation robust z-score: -0.42; nuclear/cytoplasmic p65 ratio, rep 1: 1.45; nuclear/cytoplasmic p65 ratio, rep 2: 1.85; low cell count flag: enough cells to score; Call: inactive

What did the screen give for Mafa (GeneID 378435)?
p65 translocation robust z-score: 0.52; nuclear/cytoplasmic p65 ratio, rep 1: 1.78; nuclear/cytoplasmic p65 ratio, rep 2: 1.64; low cell count flag: enough cells to score; Call: inactive

For Kdelr2 (GeneID 66913), what was measured?
p65 translocation robust z-score: 0.82; nuclear/cytoplasmic p65 ratio, rep 1: 1.6; nuclear/cytoplasmic p65 ratio, rep 2: 1.47; low cell count flag: enough cells to score; Call: inactive

Which result is listed for Or4g17 (GeneID 258379)?
p65 translocation robust z-score: 3.07; nuclear/cytoplasmic p65 ratio, rep 1: 1.89; nuclear/cytoplasmic p65 ratio, rep 2: 1.98; low cell count flag: enough cells to score; Call: inactive

For Wtip (GeneID 101543), what does the deposit list?
p65 translocation robust z-score: -0.2; nuclear/cytoplasmic p65 ratio, rep 1: 1.51; nuclear/cytoplasmic p65 ratio, rep 2: 1.72; low cell count flag: enough cells to score; Call: inactive

What is on record for Il36g (GeneID 215257)?
p65 translocation robust z-score: -0.28; nuclear/cytoplasmic p65 ratio, rep 1: 1.41; nuclear/cytoplasmic p65 ratio, rep 2: 1.37; low cell count flag: enough cells to score; Call: inactive

How did the screen score Or52p2 (GeneID 258750)?
nuclear/cytoplasmic p65 ratio, rep 1: 1.58; nuclear/cytoplasmic p65 ratio, rep 2: 1.38; low cell count flag: fewer than 50 cells per well; well left out of scoring; Call: inactive

For LOC277923 (retired record) (GeneID 277923), what does the deposit list?
p65 translocation robust z-score: 0.96; nuclear/cytoplasmic p65 ratio, rep 1: 1.78; nuclear/cytoplasmic p65 ratio, rep 2: 1.76; low cell count flag: enough cells to score; Call: inactive

What did the screen give for Pard6g (GeneID 93737)?
p65 translocation robust z-score: 0.41; nuclear/cytoplasmic p65 ratio, rep 1: 1.45; nuclear/cytoplasmic p65 ratio, rep 2: 1.29; low cell count flag: enough cells to score; Call: inactive

How did the screen score Vps35 (GeneID 65114)?
p65 translocation robust z-score: 1.42; nuclear/cytoplasmic p65 ratio, rep 1: 1.53; nuclear/cytoplasmic p65 ratio, rep 2: 1.42; low cell count flag: enough cells to score; Call: inactive

A few values from the entries so far.
Il36g (GeneID 215257), p65 translocation robust z-score = -0.28
Kdelr2 (GeneID 66913), nuclear/cytoplasmic p65 ratio, rep 1: 1.6
